Laboratory results as given in PubChem BioAssay (NCATS).
The list shows a part of the results. These are further read-outs of the screen, such as a control signal, another cell line or another target. No call is given for them. Most of these compounds were active or inconclusive in the main read-out, so they are no random draw. The note in brackets gives the kind of curve behind each potency; many fits are weak.

Test: Validation of Assay for Modulators of Lamin A Splicing (AID 1459)
Conditions: Lamin A splicing dual RFP/GFP fluorescence reporter, ratio; measured here: GFP channel
Text: Hutchinson-Gilford Progeria Syndrome (HGPS) is a pediatric premature aging disease caused by a spontaneous mutation in the lamin A/C (LMNA) gene. The mutation activates a cryptic splice site in the LMNA pre-mRNA which results in production of a pre-lamin A protein that cannot be processed properly. The mutant protein accumulates in the nucleus and negatively affects numerous cellular functions. Correction of the splicing defect in HGPS patient cells using a targeted oligonucleotide (exo11) leads to reversal of the cellular disease phenotypes. To identify small molecule modulators of aberrant LMNA splicing, a homogenous assay was constructed in HeLa cells that used a GFP containing minigene to report on correction of aberrant splicing in lamin A and a RFP (DsRed2) to report on cell viability, uniformity and nonspecific effects on the assay signal. This assay was adapted to laser-scanning microplate cytometry (Acumen, TTP Labtech) where miniaturization of the assay to a 1,536-well plate format was possible.
Bowen, W. P.; Wylie, P. G. Application of Laser-Scanning Fluorescence Microplate Cytometry in High Content Screening. Assay Drug Dev Technol 2006;4:209-221.
Scaffidi P, Misteli T. Reversal of the cellular phenotype in the premature aging disease Hutchinson-Gilford progeria syndrome. Nat. Med. 2005;11:440-445.
NCGC Assay Protocol Summary:
Reagents/Controls: Stable clones expressing DsRed2 and lamin A-EGFP were generated by Cell and Molecular Technologies in S3 HeLa cells.
HeLa cells were prepared for the assay when they were 70-90% confluent. The cells were counted and resuspended in Opti-MEM I (no phenol red; Gibco), 2% FBS, 1% penicillin/ streptomycin (Gibco) at concentration of 120 cells/uL concentration. The suspension was passed through a Falcon basket filter with pore size 40um (Beckton Dickson).
Control titrations: column […] 1536-well plate contained a sixteen point titration (1:2 dilutions) in duplicate of ancitabine (Sigma: A8598) beginning at 40 uM final concentration. Column 2 contained a sixteen point titration (1:2 dilutions) of cycloheximide beginning at 1.4 mM final concentration. Column 3 contained ancitabine at 40 uM and column 4 contained was the vehicle control (0.5% DMSO final concentration).
5 uL of HeLa cells were plated in Aurora LoBase black clear bottom (cyclic-olefin polymer) 1536-well plates at a final density of 600 cells/well. Controls and library compounds were added with a 1536-well pin array using the Kalypsys pin-tool. The plates were then incubated for 48 hrs in a cell-culture incubator (37 °C; 5% CO2, 98% humidity). Following incubation the plates were read on the Acumen Explorer using the 488 nm laser. Data was collected on objects between 10 and 100 um in size. Cell objects were defined by a 15 um width x 10 um depth filter. The ratio of the total object intensity in PMT1 (500-530 nm emission; GFP) over PMT3 (575-640 nm emission; RFP) was calculated for analysis.
Keywords: NIH Roadmap, MLSCN, MLI, MLSMR, qHTS, NCGC, lamin A, Progeria, RNA splicing.

| SMILES | AC50 |
| --- | --- |
| COc1ccc2c(c1)CCC1C2CC[C@@]2(C)C1CC[C@@H]2NCCCCCCN1C(=O)C=CC1=O (stereo partly specified) | 22.4 µM [falling, single point] |
| CN1CCc2cc(O)cc3c2C1Cc1ccc(O)c(O)c1-3 (stereo unspecified) | 22.4 µM [falling, single point] |
| O=C1OC(=O)C2C3CCC(O3)C12 (stereo unspecified) | 20 µM [rising, partial curve] |
| CCCCCCCCCCCCCC(=O)O[C@@H]1[C@@H](C)[C@@]2(O)[C@@H](C=C(CO)C[C@@]3(O)C(=O)C(C)=C[C@@H]23)C2C(C)(C)[C@@]21OC(C)=O (stereo partly specified) | 0.0178 µM [rising, full curve, poor fit] |
| CC(=O)[C@H]1CCC2C3CC=C4C[C@@H](OS(=O)(=O)O)CC[C@]4(C)C3CC[C@@]21C (stereo partly specified) | 35.5 µM [falling, partial curve] |
| C[C@@H]1O[C@@H](O[C@H]2C[C@@H](O)[C@]3(CO)[C@H]4[C@H](O)C[C@]5(C)[C@@H]([C@@H]6COC(=O)C6)CC[C@]5(O)[C@@H]4CC[C@]3(O)C2)[C@H](O)[C@H](O)[C@H]1O | 2.82 µM [falling, full curve, poor fit] |
| CCN(CCCl)Cc1ccccc1Br | 12.6 µM [falling, partial curve, poor fit] |
| CCCN1CCc2cccc3c2C1Cc1ccc(O)c(O)c1-3 (stereo unspecified) | 35.5 µM [falling, single point] |
| C[C@]12CC[C@@H](O)CC1CCC1C2CC[C@]2(C)C(=O)CC[C@@H]12 (stereo partly specified) | 11.2 µM [falling, single point] |
| COc1ccc2c(c[n+](C)c3c4cc5c(cc4ccc23)OCO5)c1OC | 2.82 µM [falling, full curve] |
| NC(CCCCCP(=O)(O)O)C(=O)O (stereo unspecified) | 35.5 µM [falling, single point] |
| CCn1cnc2c(Nc3cccc(Cl)c3)nc(N[C@@H]3CCCC[C@@H]3N)nc21 | 6.31 µM [falling, full curve] |
| C[C@]12CC[C@H](O)CC1=CCC1C2CC[C@]2(C)C(=O)CC[C@@H]12 (stereo partly specified) | 35.5 µM [rising, single point] |
| c1ccc2c(c1)[I+]c1ccccc1-2 | 5.62 µM [falling, partial curve] |
| CNc1ccc2oc(C[C@H]3O[C@@]4(CC[C@H]3C)O[C@H]([C@H](C)C(=O)c3ccc[nH]3)[C@H](C)C[C@H]4C)nc2c1C(=O)O | 3.55 µM [falling, full curve] |
| CCCCCCC(C)(C)c1ccc([C@@H]2C[C@H](O)CC[C@H]2CCCO)c(O)c1 | 14.1 µM [rising, single point] |
| C=C(C)[C@H]1Cc2c(ccc3c2O[C@@H]2COc4cc(OC)c(OC)cc4[C@@H]2C3=O)O1 | 5.62 µM [falling, single point] |
| CC[C@H]1CN2CCc3cc(OC)c(OC)cc3[C@@H]2C[C@@H]1C[C@H]1NCCc2cc(OC)c(OC)cc21 | 0.562 µM [falling, full curve] |
| C=CCN1CC[C@]23c4c5ccc(O)c4O[C@@H]2/C(=N/N=C2\CC[C@@]4(O)C6Cc7ccc(O)c8c7[C@@]4(CCN6CC=C)[C@@H]2O8)CC[C@@]3(O)C1C5 | 35.5 µM [falling, single point] |
| CC(=O)c1c(O)c(C)c(O)c(Cc2c(O)c3c(c(C(=O)/C=C/c4ccccc4)c2O)OC(C)(C)C=C3)c1O | 15.8 µM [rising, single point] |

Same assay, conditions: Lamin A splicing dual RFP/GFP fluorescence reporter, ratio; measured here: RFP channel

| SMILES | AC50 |
| --- | --- |
| COc1ccc2c(c1)CCC1C2CC[C@@]2(C)C1CC[C@@H]2NCCCCCCN1C(=O)C=CC1=O (stereo partly specified) | 10 µM [falling, partial curve] |
| CC(N)c1cccc(Cl)c1Cl (stereo unspecified) | 22.4 µM [falling, partial curve, poor fit] |
| CN1CCc2cc(O)cc3c2C1Cc1ccc(O)c(O)c1-3 (stereo unspecified) | 25.1 µM [falling, partial curve] |
| O=C1OC(=O)C2C3CCC(O3)C12 (stereo unspecified) | 20 µM [rising, partial curve] |
| CC(=O)[C@H]1CC[C@H]2[C@@H]3CCC4=CC(=O)CC[C@]4(C)[C@H]3CC[C@]12C | 35.5 µM [falling, single point] |
| CCCCCCCCCCCCCC(=O)O[C@@H]1[C@@H](C)[C@@]2(O)[C@@H](C=C(CO)C[C@@]3(O)C(=O)C(C)=C[C@@H]23)C2C(C)(C)[C@@]21OC(C)=O (stereo partly specified) | 0.0178 µM [rising, full curve, poor fit] |
| CC(=O)[C@H]1CCC2C3CC=C4C[C@@H](OS(=O)(=O)O)CC[C@]4(C)C3CC[C@@]21C (stereo partly specified) | 35.5 µM [falling, partial curve] |
| C[C@@H]1O[C@@H](O[C@H]2C[C@@H](O)[C@]3(CO)[C@H]4[C@H](O)C[C@]5(C)[C@@H]([C@@H]6COC(=O)C6)CC[C@]5(O)[C@@H]4CC[C@]3(O)C2)[C@H](O)[C@H](O)[C@H]1O | 2.82 µM [falling, full curve, poor fit] |
| CCN(CCCl)Cc1ccccc1Br | 14.1 µM [falling, partial curve] |
| CCCN1CCc2cccc3c2C1Cc1ccc(O)c(O)c1-3 (stereo unspecified) | 17.8 µM [falling, partial curve] |
| C[C@]12CC[C@@H](O)CC1CCC1C2CC[C@]2(C)C(=O)CC[C@@H]12 (stereo partly specified) | 0.708 µM [falling, partial curve, poor fit] |
| COc1ccc2c(c[n+](C)c3c4cc5c(cc4ccc23)OCO5)c1OC | 2.82 µM [falling, full curve] |
| NC(CCCCCP(=O)(O)O)C(=O)O (stereo unspecified) | 35.5 µM [falling, single point] |
| CCn1cnc2c(Nc3cccc(Cl)c3)nc(N[C@@H]3CCCC[C@@H]3N)nc21 | 5.62 µM [falling, full curve] |
| c1ccc2c(c1)[I+]c1ccccc1-2 | 7.08 µM [falling, full curve] |
| CNc1ccc2oc(C[C@H]3O[C@@]4(CC[C@H]3C)O[C@H]([C@H](C)C(=O)c3ccc[nH]3)[C@H](C)C[C@H]4C)nc2c1C(=O)O | 2.82 µM [falling, full curve] |
| CCCCCCC(C)(C)c1ccc([C@@H]2C[C@H](O)CC[C@H]2CCCO)c(O)c1 | 14.1 µM [rising, single point] |
| C=C(C)[C@H]1Cc2c(ccc3c2O[C@@H]2COc4cc(OC)c(OC)cc4[C@@H]2C3=O)O1 | 2.82 µM [falling, full curve] |
| CC[C@H]1CN2CCc3cc(OC)c(OC)cc3[C@@H]2C[C@@H]1C[C@H]1NCCc2cc(OC)c(OC)cc21 | 0.794 µM [falling, full curve] |
| C=CCN1CC[C@]23c4c5ccc(O)c4O[C@@H]2/C(=N/N=C2\CC[C@@]4(O)C6Cc7ccc(O)c8c7[C@@]4(CCN6CC=C)[C@@H]2O8)CC[C@@]3(O)C1C5 | 28.2 µM [falling, single point] |
| CC(=O)c1c(O)c(C)c(O)c(Cc2c(O)c3c(c(C(=O)/C=C/c4ccccc4)c2O)OC(C)(C)C=C3)c1O | 15.8 µM [rising, single point] |
